# Laboratory results from PubChem BioAssay AID1487 (National Center for Advancing Translational Sciences (NCATS), 2009).
# This is one part of the list. Shown are side measurements of this screen, not its main read-out; they come without a call. The list favours compounds with an active or inconclusive main result. The note in brackets gives the kind of curve behind each potency; many fits are weak.
# Assay: qHTS Assay for Modulators of Lamin A Splicing
# Settings: HeLa LMNA splicing GFP/RFP minigene ratio, 48 h
# How it was run: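 S3 HeLa cells stably expressing lamin A-EGFP splicing minigene plus DsRed2, 600 cells/well, 48 h compound exposure at 37C. Laser-scanning cytometry; analysed as GFP (500-530 nm)/RFP (575-640 nm) total intensity ratio; 0.5% DMSO vehicle.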
# [1] = measured here: RFP viability control channel
# [2] = measured here: GFP splicing reporter channel
smiles,measurement,setting,value
Cc1ccc(NC(=O)CSc2nc(NS(=O)(=O)c3ccc(C)cc3)cc(=O)[nH]2)cc1,AC50,[1],"17.8 µM [falling, single point]"
Clc1ccc(-c2noc(CSc3nnc(Cc4cccs4)n3-c3ccccc3)n2)cc1,AC50,[1],"35.5 µM [rising, single point]"
CCN(CC(=O)NCc1cccs1)c1nnnn1-c1ccccc1,AC50,[1],"35.5 µM [rising, single point]"
CCCOc1ccc(C(CC(=O)O)NC(=O)c2sc3ccccc3c2Cl)cc1 (stereo unspecified),AC50,[1],"35.5 µM [falling, single point]"
CCCCn1cnc2cc(C)c(C)cc21,AC50,[1],"0.00355 µM [rising, full curve, poor fit]"
COc1cccc(C(=O)N2CCN(Cc3cc(Br)ccc3OC)CC2)c1,AC50,[1],"35.5 µM [rising, single point]"
CC1(C)CC(=O)C2=C(C1)Oc1nc3ccccc3cc1C2C(C#N)C#N (stereo unspecified),AC50,[2],"15.8 µM [falling, single point]"
same,AC50,[1],"3.98 µM [falling, single point]"
O=c1c(-c2ccc(F)cc2)nc2cncnc2n1Cc1ccccc1,AC50,[2],"2.51 µM [falling, partial curve]"
same,AC50,[1],"35.5 µM [falling, single point]"
O=C(NCCC1=CCCCC1)C1CCCN(S(=O)(=O)c2ccccc2)C1 (stereo unspecified),AC50,[2],"14.1 µM [rising, single point]"
same,AC50,[1],"14.1 µM [rising, partial curve]"
O=C(OCC(=O)N1CCc2ccccc2C1)c1ccc(N2CCOCC2)c([N+](=O)[O-])c1,AC50,[1],"35.5 µM [rising, single point]"
O=[N+]([O-])c1ccc(C(=S)N2CCN(c3ccc(F)cc3)CC2)cc1,AC50,[2],"14.1 µM [falling, partial curve, poor fit]"
same,AC50,[1],"1.12 µM [falling, full curve, poor fit]"
O=C(Nc1cccc2ccccc12)OC1C=CS(=O)(=O)C1 (stereo unspecified),AC50,[1],"11.2 µM [rising, partial curve]"
CC(C)(C)c1ccc(S(=O)(=O)N2CCSC2)cc1,AC50,[2],"22.4 µM [rising, single point]"
same,AC50,[1],"12.6 µM [rising, partial curve]"
Cc1nn(Cc2ccc(Cl)cc2Cl)c(C)c1NC(=O)NC12CC3CC(CC(C3)C1)C2,AC50,[1],"12.6 µM [rising, single point]"
Cc1ccc(OC(C)C(=O)N/N=C/c2ccccn2)cc1 (stereo unspecified),AC50,[2],"7.94 µM [falling, partial curve, poor fit]"
CCC(C)NC(=O)CSc1nc2cc3c(cc2c(=O)n1Cc1ccc(C(=O)NCCc2ccc(OC)c(OC)c2)cc1)OCO3 (stereo unspecified),AC50,[2],"2.51 µM [falling, full curve, poor fit]"
same,AC50,[1],"3.16 µM [falling, partial curve, poor fit]"
O=C(OCC#CCSc1nnc(-c2ccc(Br)cc2)o1)c1ccco1,AC50,[2],"35.5 µM [rising, single point]"
same,AC50,[1],"25.1 µM [rising, single point]"
CCN1C(=O)CC(N2CCN(c3ccc(C(=O)c4ccccc4)cc3)CC2)C1=O (stereo unspecified),AC50,[2],"20 µM [rising, partial curve, poor fit]"
CC(=O)c1cc(-c2ccccc2)n(CC(=O)NCc2cccs2)c1C,AC50,[1],"11.2 µM [rising, single point]"
Cc1cccc(N2CCN(C(=O)C3CCN(c4ncnc5c4nc4n5CCCCC4)CC3)CC2)c1C,AC50,[2],"11.2 µM [falling, partial curve]"
same,AC50,[1],"10 µM [falling, partial curve]"
CCN(CC)c1ccc(-n2cc3c(=O)n(C)c(=O)n(C)c3c2)cc1,AC50,[2],"35.5 µM [rising, single point]"
same,AC50,[1],"35.5 µM [rising, single point]"
O=C1C(Cl)=C(NCC2CCCO2)C(=O)N1CCc1ccccc1 (stereo unspecified),AC50,[1],"15.8 µM [rising, partial curve, poor fit]"
COC(=O)c1[nH]c2ccc(F)cc2c1NS(=O)(=O)c1ccc(OC)cc1,AC50,[2],"10 µM [rising, partial curve]"
same,AC50,[1],"7.94 µM [rising, partial curve]"
COC(=O)c1cc(S(=O)(=O)N2CCOCC2)ccc1Sc1ccccc1N,AC50,[1],"35.5 µM [rising, single point]"
Cc1ccc(S(=O)(=O)Nc2ccc(Oc3cccnc3)nc2)cc1,AC50,[1],"0.158 µM [falling, full curve, poor fit]"
Cc1ccc(N(C)C(=O)CCS(=O)(=O)c2cc3c(cc2Cl)NC(=O)CO3)cc1,AC50,[2],"5.01 µM [falling, partial curve]"
same,AC50,[1],"6.31 µM [falling, full curve, poor fit]"
O=C(Nc1cccc(Cl)c1)Nc1ccc2c(c1)OCO2,AC50,[1],"15.8 µM [rising, single point]"
C#CCOc1ccc(/C=C2\SC(=S)N(Cc3cccnc3)C2=O)cc1,AC50,[2],"35.5 µM [rising, single point]"
FC(F)Oc1ccc(NC(=S)NCc2cccnc2)cc1,AC50,[1],"1.41 µM [falling, partial curve, poor fit]"
COc1ccccc1NC(=O)/C(=C/c1cccc([N+](=O)[O-])c1)c1ccccc1,AC50,[1],"35.5 µM [rising, single point]"
Cc1cccc(C(=O)Nc2ccc(S(=O)(=O)N(Cc3ccccc3)c3ccccc3)cc2)c1,AC50,[1],"0.0355 µM [falling, full curve, poor fit]"
CCn1c(SCC(=O)c2ccc(O)c(O)c2)nnc1-c1ccccc1OC,AC50,[1],"25.1 µM [rising, single point]"
OCCCNC(=S)Nc1ccc2nccnc2c1,AC50,[2],"0.0112 µM [rising, full curve, poor fit]"
CCOc1ccccc1NC(=O)c1cccc(S(=O)(=O)N(Cc2ccccc2)c2ccccc2OC)c1,AC50,[1],"10 µM [rising, partial curve]"
Cc1ccccc1NC(=S)NC(NC(=O)c1ccccc1C)C(Cl)(Cl)Cl (stereo unspecified),AC50,[2],"12.6 µM [falling, single point]"
same,AC50,[1],"20 µM [falling, single point]"
O=[N+]([O-])c1cc(S(=O)(=O)Nc2ccccc2)ccc1N1CCN(c2ccccc2)CC1,AC50,[1],"12.6 µM [rising, partial curve, poor fit]"
Cc1cc2c(cc1S(N)(=O)=O)S(=O)(=O)CCC2,AC50,[2],"0.0251 µM [falling, full curve]"
same,AC50,[1],"0.708 µM [falling, single point]"
Cc1ccccc1OCC(O)Cn1c2ccccc2c2ccccc21 (stereo unspecified),AC50,[2],"20 µM [falling, single point]"
same,AC50,[1],"25.1 µM [falling, single point]"
Cc1ccc(Nc2nc(NCc3ccco3)c3ccccc3n2)cc1,AC50,[2],"35.5 µM [falling, single point]"
same,AC50,[1],"35.5 µM [falling, single point]"
O=C(CSc1nc2ccccc2c(=O)n1Cc1ccco1)N1CCN(c2ccccc2)CC1,AC50,[2],"11.2 µM [rising, partial curve]"
same,AC50,[1],"12.6 µM [rising, partial curve]"
CC(C)C(=O)NC(=S)Nc1ccc(S(=O)(=O)Nc2ccccc2)cc1,AC50,[2],"14.1 µM [rising, single point]"
same,AC50,[1],"35.5 µM [rising, single point]"
CC1Cc2ccccc2N1CC(=O)Nc1cccc(S(N)(=O)=O)c1 (stereo unspecified),AC50,[1],"0.0282 µM [falling, full curve, poor fit]"
COc1ccc(CN=C2NC(=O)CC(C(=O)Nc3ccc([N+](=O)[O-])cc3C)S2)cc1 (stereo unspecified),AC50,[2],"12.6 µM [rising, partial curve, poor fit]"
same,AC50,[1],"20 µM [rising, partial curve, poor fit]"
O=C(Nc1ccc(Cl)cc1)Nc1ccccc1NS(=O)(=O)c1cccs1,AC50,[1],"35.5 µM [rising, partial curve]"
COc1cccc(CNC(=O)c2cnc3sc(N4CCCC4)nn3c2=O)c1OC,AC50,[2],"0.00891 µM [falling, full curve, poor fit]"
same,AC50,[1],"0.562 µM [falling, full curve, poor fit]"
CCCC(=O)Nc1cccc2c1CCCC2,AC50,[1],"0.126 µM [falling, full curve, poor fit]"
Cc1ccc(C(=O)N2CCN(c3ccc(Cl)cc3)CC2)cc1,AC50,[2],"12.6 µM [rising, partial curve]"
same,AC50,[1],"12.6 µM [rising, partial curve]"
Cc1c(-c2ccccc2)oc2c(C(=O)OCC(=O)Nc3ccc(C(N)=O)cc3)cccc2c1=O,AC50,[2],"0.0316 µM [rising, full curve]"
same,AC50,[1],"0.0282 µM [rising, full curve, poor fit]"
COc1ccc(CCNC(=O)c2ccc(Cl)c(S(=O)(=O)N(C)c3ccccc3)c2)cc1,AC50,[1],"2.24 µM [rising, full curve]"
COc1ccccc1OCC(=O)OCC(=O)Nc1ncc(Cl)cc1Cl,AC50,[2],"35.5 µM [rising, single point]"
same,AC50,[1],"20 µM [rising, single point]"
CCCN(Cc1ccccc1)C(=S)Nc1cccc(C(F)(F)F)c1,AC50,[1],"17.8 µM [rising, partial curve]"
COc1ccc(C2NC(=O)N(C)C3=C2C(=O)N(c2ccc(Br)cc2)C3)cc1 (stereo unspecified),AC50,[1],"0.794 µM [falling, partial curve, poor fit]"
CCCCN1/C(=C/c2ccc3ccccc3[n+]2CC)Sc2ccccc21,AC50,[2],"0.398 µM [rising, single point]"
CC(CSc1nnnn1-c1ccccc1)Cn1c(N2CCN(C)CC2)nc2c1c(=O)[nH]c(=O)n2C (stereo unspecified),AC50,[1],"35.5 µM [falling, single point]"

# 3 records picked at random from the list so far, as already listed:
smiles,measurement,setting,value
Cc1c(-c2ccccc2)oc2c(C(=O)OCC(=O)Nc3ccc(C(N)=O)cc3)cccc2c1=O,AC50,[1],"0.0282 µM [rising, full curve, poor fit]"
Cc1cccc(C(=O)Nc2ccc(S(=O)(=O)N(Cc3ccccc3)c3ccccc3)cc2)c1,AC50,[1],"0.0355 µM [falling, full curve, poor fit]"
Cc1ccc(Nc2nc(NCc3ccco3)c3ccccc3n2)cc1,AC50,[2],"35.5 µM [falling, single point]"
